PubChem BioAssay AID504467 (National Center for Advancing Translational Sciences (NCATS), 2011)
About 7,700 (2.3%) of roughly 330,000 compounds were called active. The shares of active, inactive and inconclusive entries below differ from those in the screen. Calls follow the shape of the dose curve; as a rule, active = well fitted inhibition curve with a large enough effect; inconclusive = small, poorly fitted or top-dose-only effect, or effect the other way; inactive = flat fitted curve, though single readings scatter. Where the call is inconclusive, the potency comes from a doubtful curve fit.

test: qHTS screen for small molecules that inhibit ELG1-dependent DNA repair in human embryonic kidney (HEK293T) cells expressing luciferase-tagged ELG1; settings: HEK293T ELG1-luciferase reporter, luminescence, 16 h, DNA damage induced by 5-fluorouridine; series mostly up to 46.1 µM; also: nearly all actives have a fitted effect of over 55% in size
In short: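 Quantitative HTS, concentration-response format. 2,000 cells/well co-treated with 5-fluorouridine and compound, 16 hr in 5% CO2 at 37 °C; ONE-Glo luminescence read after 30 min.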
Potency is read from the fitted curve at half-maximal effect.

Row | Structure (SMILES) | Potency
1 | COC(=O)c1cccc(S(=O)(=O)N2CCC(NC(=O)NC34CC5CC(CC(C5)C3)C4)CC2)c1 | inconclusive: 29.1 µM [inhibitor, single point]
2 | COc1ccc(N/C=C/C(=O)c2sc(-c3ccccc3)nc2C)cc1 | inactive
3 | N#CC1=C(N)Oc2n[nH]c(-c3cccs3)c2C1c1cccs1 (stereo not given) | inconclusive: 7.31 µM [activator, partial curve]
4 | C=CCC1(CC=C)CCCN1C(=O)C1CCC(=O)N(CCc2ccc(Cl)cc2)C1 (stereo not given) | inactive
5 | N/C(=N\OC(=O)Cc1ccccc1)c1ccccn1 | inconclusive: 14.6 µM [activator, partial curve]
6 | CCOC(=O)c1c(-c2ccc(OC)cc2)csc1NC(=O)CNCc1ccco1 | inconclusive: 29.1 µM [inhibitor, single point]
7 | CC(C)OC(=O)c1cn(-c2ccccc2)nc1-c1ccc2c(c1)OCCO2 | active: 23.1 µM
8 | CCCCN(C(=O)c1cc(-c2ccco2)nc2ccccc12)c1c(N)n(CCC)c(=O)[nH]c1=O | inconclusive: 20.6 µM [activator, partial curve, poor fit]
9 | CCN(Cc1ccccc1)C(=O)c1cc2c(=O)oc3ccc(C)cc3c2s1 | inconclusive: 18.4 µM [inhibitor, single point]
10 | COc1ccc2nc(NC(=O)CSC(C)C(=O)Nc3cc(C)on3)sc2c1 (stereo not given) | inconclusive: 16.4 µM [activator, partial curve, poor fit]
11 | O=C(NCc1cccnc1)c1ccc(CS(=O)(=O)c2ccc(Br)cc2)o1 | inconclusive: 23.1 µM [inhibitor, single point]
12 | COc1cc2oc(=O)cc(-c3ccc(-c4ccc(C#N)cc4)cc3)c2c(OC)c1OC | inconclusive: 20.6 µM [inhibitor, partial curve]
13 | COc1ccc(CNC(=O)CSc2nnc(C)c(=O)[nH]2)cc1 | inconclusive: 29.1 µM [inhibitor, single point]
14 | CN(C)CCCNc1oc(/C=C/c2cccs2)nc1S(=O)(=O)c1ccccc1 | inactive
15 | CCOc1ccc(-c2cc(CCCC(=O)NCc3ccc(C)cc3)no2)cc1 | inconclusive: 5.17 µM [activator, partial curve]
16 | CC(C)C(NC(=O)C1CCCCC1)C(=O)N1CCN(c2ccc(F)cc2)CC1 (stereo not given) | inactive
17 | COc1ccc(N2CCN(c3nc4ccccn4c(=O)c3/C=C(\C#N)S(=O)(=O)c3ccccc3)CC2)cc1 | inconclusive: 18.3 µM [activator, partial curve, poor fit]
18 | COc1ccc(/C=C/C(=O)c2ccc(NC3=NCCCS3)cc2)cc1OC | inactive
19 | Cc1ccc2cc(CCNC(=O)c3cccs3)c(=O)[nH]c2c1 | inconclusive: 7.31 µM [activator, partial curve]
20 | Cc1ccc(N2CCN(c3ccc(NC(=O)CCC(=O)O)cc3)CC2)cc1 | inactive
21 | Cc1ccc(C)c(S(=O)(=O)N2CCN(C(=O)CCc3nc4ccccc4c(=O)[nH]3)CC2)c1 | inactive
22 | CC(C)CNS(=O)(=O)c1ccc(CCC(=O)N2CCN(c3ccccc3)CC2)cc1 | inconclusive: 23.1 µM [inhibitor, partial curve, poor fit]
23 | COc1ccc(S(=O)(=O)N2CCOC2CNC(=O)C(=O)NCCN2CCOCC2)cc1C (stereo not given) | inactive
24 | COCCCNC(=O)CCn1c(=O)c2ccccc2n(CC(=O)Nc2cc(Cl)ccc2C)c1=O | inactive

Row | Structure (SMILES) | Potency
25 | CCOC(=O)N1CCN(C(=O)Nc2sc3nc4n(c(=O)c3c2C)CCC(C)CC4)CC1 (stereo not given) | inconclusive: 29.1 µM [inhibitor, single point]
26 | CCC(COC)NC(=O)c1ccc(OC)c(OC2CCN(C(C)=O)CC2)c1 (stereo not given) | inactive
27 | Cc1c(NC(=O)c2cc(-n3cnnc3)ccc2Cl)cccc1-c1nc2ccccc2o1 | inconclusive: 29.1 µM [inhibitor, single point]
28 | COc1ccc(S(=O)(=O)n2cnc3ccccc32)cc1OC | inactive
29 | CC(=O)OC1CC(C)(C)N(OC(=O)c2ccccc2)C(C)(C)C1 | inactive
30 | Cc1occc1-c1nc(-c2ccncc2)no1 | inconclusive: 18.4 µM [activator, partial curve]
31 | Cc1ccc(Cn2c(SCC(=O)Nc3cccc(C)n3)nc3c2c(=O)n(C)c(=O)n3C)cc1 | inactive
32 | O=C(CSc1ccc2nnc(CCNC(=O)c3ccccc3)n2n1)NCc1ccco1 | inactive
33 | CCOC(=O)N1CCN(Cc2c(O)ccc3ccccc23)CC1 | inconclusive: 5.8 µM [activator, full curve]
34 | O=C(CCc1ccccc1)Nc1cc2c3c(c1)CCC(=O)N3CCC2 | inactive
35 | O=C(CN1CCOCC1)N/N=C/C(Br)=C\c1ccccc1 | inconclusive: 0.82 µM [inhibitor, full curve]
36 | C#CCOCCOCCOCCNc1nc(N2CCN(C(=O)[C@H](CCC(=O)O)n3cc([C@@H](N)[C@H](C)CC)nn3)CC2)nc(N2CCN(C(=O)[C@H](CCCCN)n3cc([C@@H](N)CC(N)=O)nn3)CC2)n1 | inactive
37 | Cc1ccc(C(=O)CSc2n[nH]c(C)n2)cc1 | inconclusive: 23.1 µM [activator, partial curve, poor fit]
38 | Cn1c(=O)c(-c2ccccc2)nc2ccccc21 | inconclusive: 16.4 µM [activator, single point]
39 | C[C@H](CO)N1C[C@H](C)[C@@H](CN(C)S(=O)(=O)c2ccc(F)cc2)Oc2ccc(NS(=O)(=O)c3ccc(F)cc3)cc2C1=O | inconclusive: 13 µM [inhibitor, partial curve]
40 | C=CCC1(CC=C)CCCN1Cc1nc(COc2ccccc2)no1 | inactive
41 | Cc1cc(-c2ccc(C)c(S(=O)(=O)NCCCN3CCCCCC3)c2)on1 | inactive
42 | O=C(CSc1nnc(Cc2cccs2)n1Cc1ccco1)Nc1ccc(Br)cc1 | inconclusive: 23.1 µM [inhibitor, single point]
43 | O=C(Nc1ccc2c(c1)CCC2)c1cccc(F)c1 | inconclusive: 3.66 µM [activator, full curve]
44 | CC1CCCCC1NC(=O)c1cccc(N2C(=O)C3C4C=CC(C4)C3C2=O)c1 (stereo not given) | inconclusive: 5.8 µM [inhibitor, partial curve]
45 | O=C(O)c1cccc(S(=O)(=O)Nc2ccc(Oc3ccccc3)cc2)c1 | inconclusive: 18.3 µM [activator, single point]
46 | Cn1cccc1C(=O)OCc1cc(Cl)cc2c1OCOC2 | inconclusive: 12.6 µM [activator, partial curve]
47 | O=C(CN1c2cccc3cccc(c23)S1(=O)=O)NCCc1ccc(F)cc1 | inactive
48 | O=C(NCC1CCCO1)C1CCN(C2CCN(CCCC3CCCC3)CC2)CC1 (stereo not given) | inactive

Filtered by structure: those above containing four or more nitrogen atoms
Row | Structure (SMILES) | Potency
3 | N#CC1=C(N)Oc2n[nH]c(-c3cccs3)c2C1c1cccs1 (stereo not given) | inconclusive: 7.31 µM [activator, partial curve]
8 | CCCCN(C(=O)c1cc(-c2ccco2)nc2ccccc12)c1c(N)n(CCC)c(=O)[nH]c1=O | inconclusive: 20.6 µM [activator, partial curve, poor fit]
10 | COc1ccc2nc(NC(=O)CSC(C)C(=O)Nc3cc(C)on3)sc2c1 (stereo not given) | inconclusive: 16.4 µM [activator, partial curve, poor fit]
13 | COc1ccc(CNC(=O)CSc2nnc(C)c(=O)[nH]2)cc1 | inconclusive: 29.1 µM [inhibitor, single point]
17 | COc1ccc(N2CCN(c3nc4ccccn4c(=O)c3/C=C(\C#N)S(=O)(=O)c3ccccc3)CC2)cc1 | inconclusive: 18.3 µM [activator, partial curve, poor fit]
21 | Cc1ccc(C)c(S(=O)(=O)N2CCN(C(=O)CCc3nc4ccccc4c(=O)[nH]3)CC2)c1 | inactive
23 | COc1ccc(S(=O)(=O)N2CCOC2CNC(=O)C(=O)NCCN2CCOCC2)cc1C (stereo not given) | inactive
24 | COCCCNC(=O)CCn1c(=O)c2ccccc2n(CC(=O)Nc2cc(Cl)ccc2C)c1=O | inactive
25 | CCOC(=O)N1CCN(C(=O)Nc2sc3nc4n(c(=O)c3c2C)CCC(C)CC4)CC1 (stereo not given) | inconclusive: 29.1 µM [inhibitor, single point]
27 | Cc1c(NC(=O)c2cc(-n3cnnc3)ccc2Cl)cccc1-c1nc2ccccc2o1 | inconclusive: 29.1 µM [inhibitor, single point]
31 | Cc1ccc(Cn2c(SCC(=O)Nc3cccc(C)n3)nc3c2c(=O)n(C)c(=O)n3C)cc1 | inactive
32 | O=C(CSc1ccc2nnc(CCNC(=O)c3ccccc3)n2n1)NCc1ccco1 | inactive
36 | C#CCOCCOCCOCCNc1nc(N2CCN(C(=O)[C@H](CCC(=O)O)n3cc([C@@H](N)[C@H](C)CC)nn3)CC2)nc(N2CCN(C(=O)[C@H](CCCCN)n3cc([C@@H](N)CC(N)=O)nn3)CC2)n1 | inactive
42 | O=C(CSc1nnc(Cc2cccs2)n1Cc1ccco1)Nc1ccc(Br)cc1 | inconclusive: 23.1 µM [inhibitor, single point]

Going on with the list.

Row | Structure (SMILES) | Potency
49 | CCOc1ccc(N(CC(=O)Nc2ccc(C)cc2C)S(C)(=O)=O)cc1 | inactive
50 | O=C(COc1coc(CN2CCN(c3ccccc3F)CC2)cc1=O)NC1CCCCC1 | inactive
51 | COc1ccc(C(=O)NC(=S)Nc2ccc3oc(=O)ccc3c2)cc1[N+](=O)[O-] | inconclusive: 16.4 µM [inhibitor, partial curve, poor fit]
52 | Cc1cccc(N/C=C/C(=O)c2ccc(Cl)cc2)c1 | inconclusive: 6.51 µM [activator, partial curve]
53 | CCOc1cc(O)c(-c2[nH]ncc2-c2nc(C)cs2)cc1CC | inconclusive: 32.6 µM [inhibitor, single point]
54 | Cc1cc(NC(=O)c2ccc(-c3ccccc3F)o2)no1 | inconclusive: 10.3 µM [activator, partial curve]
55 | Cc1cc(C)n(CCCNC(=O)CCNS(=O)(=O)c2ccccc2C(F)(F)F)n1 | inactive
56 | Cc1nn(-c2ccccc2)c(C)c1/C=N/NC(=O)c1cnccn1 | inactive
57 | Cc1ccnc(NC(=O)c2ccc(Cl)c(NC(=O)CCc3ccccc3)c2)c1 | inconclusive: 32.6 µM [inhibitor, partial curve, poor fit]
58 | C/C(=N/NC(=O)CN(c1ccccc1)S(=O)(=O)c1ccccc1)c1ccccc1O | active: 13 µM
59 | Cc1ccc(F)cc1NC(=O)CSc1nnc(CNC(=O)c2ccco2)n1C | inactive
60 | Cc1c(C=O)c2ccccc2n1CCOc1ccccc1 | inconclusive: 16.4 µM [inhibitor, single point]
61 | CCOC(=O)N1CCC2(CC1)C(C#N)=C(N)Oc1c2sc2nc(C)cc(C)c12 | inconclusive: 16.4 µM [inhibitor, single point]
62 | O=C(Nc1ccc2c(c1)OCCO2)c1cccc(S(=O)(=O)N2CCCCC2)c1 | inactive
63 | CC(NC(=O)CN1C(=O)NC(c2ccccc2)(c2ccccc2)C1=O)c1cccs1 (stereo not given) | inactive
64 | COc1ccc(OC)c2sc(N3CCN(C(=O)c4ccc([N+](=O)[O-])s4)CC3)nc12 | inconclusive: 5.8 µM [inhibitor, single point]
65 | O=C(NCCCN1CCOCC1)C(=O)NCC1OCCCN1S(=O)(=O)c1cc(F)ccc1F (stereo not given) | inactive
66 | CC1(C)CC(=O)c2c(noc2-c2ccccc2)C1 | inconclusive: 29.1 µM [activator, single point]
67 | Cc1nc(Cc2nnc(SC(C)C(=O)Nc3cccc(C#N)c3)o2)cs1 (stereo not given) | inconclusive: 25.9 µM [activator, single point]
68 | COc1ccc(N(CC(=O)NC2CCCC2)S(=O)(=O)c2c(C)[nH]c(=O)[nH]c2=O)cc1 | inconclusive: 32.6 µM [activator, partial curve, poor fit]
69 | CCOc1cc(CNc2ccc3c(c2)OCCO3)cc(Br)c1OCC(N)=O | inconclusive: 29.1 µM [activator, partial curve, poor fit]
70 | Cc1cc(C(=O)N2CCN(S(=O)(=O)c3ccc(C)c(C)c3)CC2)no1 | inactive
